Measurements published in PubChem BioAssay AID493014 (National Center for Advancing Translational Sciences (NCATS), 2011).
The other results are listed elsewhere or left out. These are further read-outs of the screen, such as a control signal, another cell line or another target. No call is given for them. Compounds called inactive in the main read-out are mostly missing here. Words in brackets tell the shape of the fitted curve; partial curves, single points and poor fits give uncertain potencies.

Test: qHTS Assay to Find Inhibitors of Chronic Active B-Cell Receptor Signaling
Conditions: ABC-DLBCL IkBa-CBG/CBR reporter, luminescence ratio (green luciferase fused to IkBa over red control in TMD8 lymphoma cells), 4 h
In short: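 TMD8 human ABC-DLBCL cells with doxycycline-inducible IκBα–green luciferase fusion and unfused red luciferase, in 0.5% FBS medium; compounds up to 46 uM, 4 h at 37C. Green/red luminescence ratio, filter-overlap corrected, fitted to concentration-response curves.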

[1] = measured here: CBR red luminescence, cell number
[2] = measured here: IkBa-CBG green luminescence

Compound: CCOc1ccc(CCNC(=O)c2ccc(OCc3c(C)noc3C)cc2)cc1OCC
- AC50 [1]: 0.206 µM [rising, full curve, poor fit]

Compound: CCOC(=O)C(=O)Nc1ccc(S(=O)(=O)Nc2nccs2)cc1
- AC50 [1]: 10 µM [falling, partial curve]

Compound: CC1CCc2c(C(=O)Nc3ccccn3)csc2C1 (centres undefined)
- AC50 [1]: 1.58 µM [rising, partial curve, poor fit]

Compound: CCOC(=O)N/N=C/c1c(C)nn(-c2cccc(C(F)(F)F)c2)c1Cl
- AC50 [1]: 6.51 µM [rising, full curve, poor fit]
- AC50 [2]: 32.6 µM [falling, partial curve, poor fit]

Compound: COCCN(C(=O)Cn1c(C(F)(F)F)nc2ccccc21)c1c(N)n(Cc2ccccc2)c(=O)[nH]c1=O
- AC50 [1]: 4.47 µM [falling, full curve]

Compound: CCN(CC)CC(=O)Nc1ccc(-c2nc3cc(NC(=O)CN(CC)CC)ccc3o2)cc1
- AC50 [1]: 23.1 µM [rising, single point]

Compound: N#CCC(=O)NN=C1CCCCCCCCCCC1
- AC50 [1]: 0.112 µM [falling, full curve, poor fit]

Compound: Cc1noc(C)c1CSCC(=O)Nc1nc2ccc(Oc3ccccc3)cc2s1
- AC50 [1]: 0.146 µM [falling, partial curve, poor fit]

Compound: CCN(CC)CCN1C(=O)c2cccc3cc(N)cc(c23)C1=O
- AC50 [1]: 3.98 µM [falling, full curve]

Compound: CC(=O)Nc1cccc(/C(C)=N/NC(=O)c2ccccc2Cl)c1
- AC50 [1]: 7.94 µM [falling, partial curve, poor fit]

Compound: CC(C)OC(=O)Cn1nnc(-c2ccccc2)n1
- AC50 [1]: 7.31 µM [rising, partial curve, poor fit]

Compound: COc1ccc(OC)c(C2=NS(=O)(=O)N(C)C(C(=O)NCc3cccs3)=C2)c1
- AC50 [1]: 15.8 µM [falling, single point]

Compound: C/C(CC(=O)Nc1ccc(Cl)cc1Cl)=N\NC(=O)c1ccncc1
- AC50 [1]: 10 µM [falling, partial curve]

Compound: O=C1Nc2ccccc2S/C1=C/NCc1ccccc1Cl
- AC50 [1]: 3.16 µM [falling, partial curve, poor fit]

Compound: Cc1ccccc1Oc1nc2c(C)cccn2c(=O)c1/C=C(\C#N)C(=O)NC1CCS(=O)(=O)C1 (centres undefined)
- AC50 [1]: 5.62 µM [falling, partial curve]

Compound: CC(OC(=O)/C=C/c1ccc2ccccc2n1)C(=O)NCc1ccccc1 (centres undefined)
- AC50 [1]: 20.6 µM [falling, partial curve, poor fit]

Compound: Cc1cc(Cl)ccc1N=c1ssnc1Cl
- AC50 [1]: 29.1 µM [falling, single point]

Compound: CC(C)(C)NC(=O)CN(C(=O)CNS(=O)(=O)c1ccccc1)c1ccc2c(c1)OCCO2
- AC50 [1]: 0.00461 µM [rising, full curve, poor fit]

Compound: COc1ccc([N+](=O)[O-])cc1NC(=S)NC(NC(=O)C(c1ccccc1)c1ccccc1)C(Cl)(Cl)Cl (centres undefined)
- AC50 [1]: 17.8 µM [falling, single point]

Compound: CC(=O)COC(=O)CNC(=O)c1ccc(Br)cc1
- AC50 [1]: 4.11 µM [falling, partial curve, poor fit]

Compound: CC(C)Cc1nc(SCc2cccnc2)c2c(=O)n(C)c(=O)n(C)c2n1
- AC50 [1]: 7.08 µM [falling, partial curve, poor fit]

Compound: CCOC(=O)c1ccc(NC(=O)/C=C/c2cccs2)cc1
- AC50 [1]: 1.12 µM [falling, full curve]

Compound: O=C(Nc1scc(-c2ccccc2)c1C(=O)O)c1ccccc1Cl
- AC50 [1]: 10 µM [falling, partial curve, poor fit]

Compound: COc1cc(-c2nc3ccc(C)cn3c2Nc2ccc3c(c2)OCCO3)ccc1O
- AC50 [2]: 23.1 µM [falling, single point]

Compound: Cc1cccc(N(C(=O)c2snc(C(N)=O)c2N)C(C(=O)NC2CCCC2)c2ccncc2)c1 (centres undefined)
- AC50 [1]: 2.82 µM [rising, full curve, poor fit]

Compound: Cc1csc(NC(=O)Cc2ccc(Br)cc2)n1
- AC50 [1]: 0.316 µM [rising, partial curve, poor fit]

Compound: Cc1ccc(NC(=O)c2ccc(CSc3ccccn3)cc2)c(O)c1
- AC50 [1]: 6.31 µM [falling, full curve]
- AC50 [2]: 14.1 µM [rising, partial curve, poor fit]

Compound: Cc1nn(-c2ccccc2)c(C)c1-c1nnc(C(F)(F)F)o1
- AC50 [1]: 0.794 µM [rising, full curve]

Compound: COC(=O)c1ccc(NC(=O)c2cccc(OC)c2)cc1
- AC50 [1]: 6.31 µM [falling, partial curve, poor fit]

Compound: C=CCN1C(=O)c2ccc(C(=O)OCC(=O)N(CC)C3CCS(=O)(=O)C3)cc2C1=O (centres undefined)
- AC50 [1]: 13 µM [falling, partial curve]

Compound: O=C(COC(=O)c1c2c(nc3ccccc13)CCN(Cc1ccccc1)C2)Nc1c(F)cccc1F
- AC50 [1]: 5.17 µM [rising, single point]

Compound: Cc1ccc(C(=O)NCC(=O)Nc2ccc(C)c(S(=O)(=O)Nc3ccc(Cl)cc3)c2)s1
- AC50 [1]: 35.5 µM [falling, single point]

Compound: CS(=O)(=O)Nc1ccc(C2=NN(C(=O)c3ccco3)C(c3ccc(F)cc3)C2)cc1 (centres undefined)
- AC50 [1]: 35.5 µM [falling, single point]

Compound: Cc1c(Cl)ccc2sc(N3CCN(C(=O)C4=COCCO4)CC3)nc12
- AC50 [1]: 4.11 µM [rising, partial curve, poor fit]

Compound: c1coc(CNc2nc3ccccc3n2CCN2CCOCC2)c1
- AC50 [1]: 20.6 µM [falling, single point]

Compound: O=c1[nH]nc(SCCS(=O)(=O)c2ccc(F)cc2)n1-c1ccccc1C(F)(F)F
- AC50 [1]: 12.6 µM [falling, partial curve]

Compound: CC1NC(=S)N(C2CCCCC2)C1=O (centres undefined)
- AC50 [1]: 15.8 µM [falling, partial curve]

Compound: COc1cc(N)c(Cl)cc1C(=O)OCC(=O)NC1CCCC1
- AC50 [1]: 7.08 µM [rising, full curve, poor fit]

Compound: O=C(Nc1ccc2c(c1)OCCO2)C1CCCN1S(=O)(=O)c1ccc(Cl)cc1 (centres undefined)
- AC50 [1]: 23.1 µM [rising, partial curve, poor fit]

Compound: NCCCCCc1nnc(SCc2ccccc2Cl)o1
- AC50 [1]: 6.31 µM [falling, full curve, poor fit]

Compound: Oc1ccc(O)c(Cc2nc3ccccc3[nH]2)c1
- AC50 [1]: 14.1 µM [falling, single point]

Compound: CC(=O)NCCc1nc2cc(NC(=O)c3ccc(F)cc3)ccc2n1C
- AC50 [1]: 11.2 µM [falling, partial curve, poor fit]

Compound: COc1cccc2cc(/C(C)=N/NC(=O)c3ccco3)oc12
- AC50 [1]: 11.2 µM [falling, partial curve, poor fit]

Compound: Cc1ccc(NC(=O)c2ccc(F)cc2)cc1S(=O)(=O)N1CCCCCC1
- AC50 [1]: 11.2 µM [falling, single point]

Compound: CS(=O)(=O)c1ccc(C(=O)NCCN2C(=O)S/C(=C\c3cccnc3)C2=O)cc1[N+](=O)[O-]
- AC50 [1]: 17.8 µM [falling, partial curve, poor fit]

Compound: COc1cc(CO)ccc1Oc1nnnn1-c1ccc(C(N)=O)cc1
- AC50 [1]: 7.31 µM [rising, full curve, poor fit]

Compound: CCOc1ccc(NC(=O)c2c(Nc3ccccc3C)sc(C(=O)c3ccccc3)c2N)cc1
- AC50 [1]: 31.6 µM [falling, single point]
